The text below walks through data of paper PMC10053807, “Natural Lipid Extracts as an Artificial Membrane for Drug Permeability Assay: In Vitro and In Silico Characterization” (Pharmaceutics, 2023).

A short description of series [1]: PAMPA permeability, brain polar lipid extract (BPLE) membrane. As to conditions: n=3, * = not detected at acceptor side, value calculated from limit of detection.
Series [2] can be described thus: PAMPA permeability, heart polar lipid extract (HPLE) membrane. As to conditions: bovine, pH 7.4. (In general: The PAMPA barrier holds no transporters, so it reflects passive diffusion.)
A short description of series [3]: PAMPA permeability, liver total lipid extract (LTLE) membrane. As to conditions: bovine, pH 7.4.
A short description of series [4]: PAMPA permeability, brain total lipid extract (BTLE) membrane. As to conditions: n=3, * = not detected at acceptor side, value calculated from limit of detection.
A short description of series [5]: PAMPA permeability, liver polar lipid extract (LPLE) membrane. As to conditions: bovine, pH 7.4, Mean Pe, n=3, * = not detected at acceptor side, value calculated from limit of detection.
Series [6] can be described thus: PAMPA permeability, heart total lipid extract (HTLE) membrane. As to conditions: bovine, pH 7.4, Mean Pe, n=3, * = not detected at acceptor side, value calculated from limit of detection.

SMILES strings stand for the structures.

For the molecule `NS(=O)(=O)c1cc(C(=O)O)c(NCc2ccco2)cc1Cl` [furosemide], the “Mean Pe” value in series [1] is < 0,37* 10-6 cm/s.
Regarding `Cc1cc(NS(=O)(=O)c2ccc(N)cc2)no1` [sulfamethoxazole], the entries for the “Mean Pe” value in series [1] and in series [4] were < 0,16* 10-6 cm/s and < 0,17* 10-6 cm/s, respectively. For the same molecule, the apparent permeability (Papp) at 4 h, 100 μM in series [2] is 1.1 ×10⁻⁶ cm/s; in series [3], 1.59 ×10⁻⁶ cm/s; in series [5] it was 1.14 ×10⁻⁶ cm/s; in series [6], 0.42 ×10⁻⁶ cm/s.

Usually Papp stands for the rate of passage across a membrane or cell layer, normalised by area and donor concentration.
